According to patent US20030113743A1:
Results are given in words; binding and its absence hold for the method and conditions named. Some results given as binding are weak or reduced against the parent protein; the word gives no strength.

Amino acid sequences for entries named in this document (tags omitted). A change or cut given only in a name is not applied to a line headed by its entry.
UniProt P20151: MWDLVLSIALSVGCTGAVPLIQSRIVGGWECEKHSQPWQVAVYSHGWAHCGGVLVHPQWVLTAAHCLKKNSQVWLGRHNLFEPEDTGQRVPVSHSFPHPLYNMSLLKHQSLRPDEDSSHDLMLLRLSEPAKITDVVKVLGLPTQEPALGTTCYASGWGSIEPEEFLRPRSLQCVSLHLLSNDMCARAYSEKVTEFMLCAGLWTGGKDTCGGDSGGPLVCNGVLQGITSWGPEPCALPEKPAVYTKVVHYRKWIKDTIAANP
UniProt P07288: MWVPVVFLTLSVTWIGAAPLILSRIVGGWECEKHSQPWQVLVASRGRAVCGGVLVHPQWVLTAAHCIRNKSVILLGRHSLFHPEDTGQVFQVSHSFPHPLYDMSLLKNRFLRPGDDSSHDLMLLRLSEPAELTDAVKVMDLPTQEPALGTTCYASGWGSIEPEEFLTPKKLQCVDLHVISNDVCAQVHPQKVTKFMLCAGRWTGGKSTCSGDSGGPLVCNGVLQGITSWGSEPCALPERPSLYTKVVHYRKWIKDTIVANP

How the values were obtained:
[1] = molecular target: wild type mature hK2 (prostate-specific glandular kallikrein protein) (human) (UniProt P20151); experiment: hK2 spiked into human serum, Western blot
[2] = molecular target: prostate-specific antigen protein, hK3 (PSA) (human) (UniProt P07288); experiment: covalent complex formation, SDS-PAGE and Western blot
[3] = molecular target: wild type mature hK2 (prostate-specific glandular kallikrein protein) (human) (UniProt P20151); experiment: protease spiked into human serum, Western blot
[4] = molecular target: prostate-specific antigen protein, hK3 (PSA) (human) (UniProt P07288); experiment: protease spiked into human serum, Western blot
[5] = molecular target: wild type mature hK2 (prostate-specific glandular kallikrein protein) (human) (UniProt P20151); experiment: covalent complex formation, SDS-PAGE and Western blot with HK1G586.1

Measured: binding

B1: α2 macroglobulin (MG) (protein, human, UniProt P01023 24-1474, looked up)
chain: SVSGKPQYMVLVPSLLHTETTEKGCVLLSYLNETVTVSASLESVRGNRSLFTDLEAENDVLHCVAFAVPKSSSNEEVMFLTVQVKGPTQEFKKRTTVMVKNEDSLVFVQTDKSIYKPGQTVKFRVVSMDENFHPLNELIPLVYIQDPKGNRIAQWQSFQLEGGLKQFSFPLSSEPFQGSYKVVVQKKSGGRTEHPFTVEEFVLPKFEVQVTVPKIITILEEEMNVSVCGLYTYGKPVPGHVTVSICRKYSDASDCHGEDSQAFCEKFSGQLNSHGCFYQQVKTKVFQLKRKEYEMKLHTEAQIQEEGTVVELTGRQSSEITRTITKLSFVKVDSHFRQGIPFFGQVRLVDGKGVPIPNKVIFIRGNEANYYSNATTDEHGLVQFSINTTNVMGTSLTVRVNYKDRSPCYGYQWVSEEHEEAHHTAYLVFSPSKSFVHLEPMSHELPCGHTQTVQAHYILNGGTLLGLKKLSFYYLIMAKGGIVRTGTHGLLVKQEDMKGHFSISIPVKSDIAPVARLLIYAVLPTGDVIGDSAKYDVENCLANKVDLSFSPSQSLPASHAHLRVTAAPQSVCALRAVDQSVLLMKPDAELSASSVYNLLPEKDLTGFPGPLNDQDNEDCINRHNVYINGITYTPVSSTNEKDMYSFLEDMGLKAFTNSKIRKPKMCPQLQQYEMHGPEGLRVGFYESDVMGRGHARLVHVEEPHTETVRKYFPETWIWDLVVVNSAGVAEVGVTVPDTITEWKAGAFCLSEDAGLGISSTASLRAFQPFFVELTMPYSVIRGEAFTLKATVLNYLPKCIRVSVQLEASPAFLAVPVEKEQAPHCICANGRQTVSWAVTPKSLGNVNFTVSAEALESQELCGTEVPSVPEHGRKDTVIKPLLVEPEGLEKETTFNSLLCPSGGEVSEELSLKLPPNVVEESARASVSVLGDILGSAMQNTQNLLQMPYGCGEQNMVLFAPNIYVLDYLNETQQLTPEIKSKAIGYLNTGYQRQLNYKHYDGSYSTFGERYGRNQGNTWLTAFVLKTFAQARAYIFIDEAHITQALIWLSQRQKDNGCFRSSGSLLNNAIKGGVEDEVTLSAYITIALLEIPLTVTHPVVRNALFCLESAWKTAQEGDHGSHVYTKALLAYAFALAGNQDKRKEVLKSLNEEAVKKDNSVHWERPQKPKAPVGHFYEPQAPSAEVEMTSYVLLAYLTAQPAPTSEDLTSATNIVKWITKQQNAQGGFSSTQDTVVALHALSKYGAATFTRTGKAAQVTIQSSGTFSSKFQVDNNNRLLLQQVSLPELPGEYSMKVTGEGCVYLQTSLKYNILPEKEEFPFALGVQTLPQTCDEPKAHTSFQISLSVSYTGSRSASNMAIVDVKMVSGFIPLKPTVKMLERSNHVSRTEVSSNHVLIYLDKVSNQTLSLFFTVLQDVPVRDLKPAIVKVYDYYETDEFAIAEYNAPCSKDLGNA
binds: [1] | [2] | [3] | [4] | [5]
